Source: publication PMC11641020
No constants are given. Whether binding was seen depends on the method and setting. Binding seen in cells or lysates may run through a third protein. Some binding calls cover weakened binding; strength is not graded here.

Protein sequences, listed by entry. Tags and fused reporters are not part of them.
UniProt Q8IWT6: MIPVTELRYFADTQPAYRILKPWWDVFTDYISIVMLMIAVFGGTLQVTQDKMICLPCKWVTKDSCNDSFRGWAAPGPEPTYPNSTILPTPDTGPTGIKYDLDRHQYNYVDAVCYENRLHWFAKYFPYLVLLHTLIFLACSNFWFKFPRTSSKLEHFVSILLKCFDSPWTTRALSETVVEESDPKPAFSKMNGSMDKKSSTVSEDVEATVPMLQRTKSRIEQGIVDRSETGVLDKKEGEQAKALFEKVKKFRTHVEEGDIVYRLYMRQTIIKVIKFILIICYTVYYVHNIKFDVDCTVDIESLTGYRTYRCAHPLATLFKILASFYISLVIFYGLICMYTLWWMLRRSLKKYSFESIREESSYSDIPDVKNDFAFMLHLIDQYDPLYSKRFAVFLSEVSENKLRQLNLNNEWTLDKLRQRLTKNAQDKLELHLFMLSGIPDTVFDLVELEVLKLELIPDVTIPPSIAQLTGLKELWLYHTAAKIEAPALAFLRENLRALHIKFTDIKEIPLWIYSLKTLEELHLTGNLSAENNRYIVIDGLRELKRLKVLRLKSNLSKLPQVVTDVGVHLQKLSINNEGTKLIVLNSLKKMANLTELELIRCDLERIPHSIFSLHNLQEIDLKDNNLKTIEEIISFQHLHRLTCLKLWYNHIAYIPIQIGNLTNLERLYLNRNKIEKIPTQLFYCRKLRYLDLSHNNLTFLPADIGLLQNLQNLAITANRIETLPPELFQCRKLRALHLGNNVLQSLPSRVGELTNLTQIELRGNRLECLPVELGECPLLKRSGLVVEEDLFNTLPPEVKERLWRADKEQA
UniProt P55786: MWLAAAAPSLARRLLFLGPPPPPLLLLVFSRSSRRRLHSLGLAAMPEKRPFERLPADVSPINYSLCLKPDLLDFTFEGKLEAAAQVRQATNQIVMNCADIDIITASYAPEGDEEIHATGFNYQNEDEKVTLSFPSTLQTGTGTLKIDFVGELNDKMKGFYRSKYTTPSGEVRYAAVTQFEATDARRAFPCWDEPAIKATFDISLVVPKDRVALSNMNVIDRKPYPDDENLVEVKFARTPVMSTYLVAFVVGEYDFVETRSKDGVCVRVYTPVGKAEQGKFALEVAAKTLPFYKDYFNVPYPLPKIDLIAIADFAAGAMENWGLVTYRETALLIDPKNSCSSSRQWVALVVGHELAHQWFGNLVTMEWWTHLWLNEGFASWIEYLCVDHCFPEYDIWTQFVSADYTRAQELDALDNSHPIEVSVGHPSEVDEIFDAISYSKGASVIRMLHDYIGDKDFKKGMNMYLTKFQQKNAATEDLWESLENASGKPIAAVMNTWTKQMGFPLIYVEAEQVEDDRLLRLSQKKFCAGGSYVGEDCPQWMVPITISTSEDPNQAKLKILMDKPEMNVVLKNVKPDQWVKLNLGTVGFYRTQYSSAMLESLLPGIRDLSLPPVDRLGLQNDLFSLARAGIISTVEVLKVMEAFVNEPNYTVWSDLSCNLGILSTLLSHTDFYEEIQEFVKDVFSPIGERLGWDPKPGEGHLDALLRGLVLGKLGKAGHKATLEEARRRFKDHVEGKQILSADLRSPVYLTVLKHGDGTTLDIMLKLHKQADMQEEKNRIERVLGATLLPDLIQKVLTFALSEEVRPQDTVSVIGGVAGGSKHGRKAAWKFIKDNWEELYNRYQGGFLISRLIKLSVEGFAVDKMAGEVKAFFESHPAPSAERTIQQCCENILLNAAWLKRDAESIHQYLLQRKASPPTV

Biological target: FLAG-tagged LRRC8A (UniProt Q8IWT6)
Experiment: FRET or BRET; FRET by acceptor bleaching in fixed, Tween 20-permeabilised LRRC8A^FLAG KU1919 parental cells; anti-FLAG with AF594 secondary and anti-NPEPPS with AF647 secondary; vehicle or tosedostat

In the case of “NPEPPS (puromycin-sensitive aminopeptidase), endogenous (from UniProt P55786 1-919) (enzyme)”, the binding is reported as “binds”.
